This note sets out measurements from PMC9688414.

Sequences of proteins named here, by UniProt entry; tags and fusion partners are left off.
UniProt Q15652: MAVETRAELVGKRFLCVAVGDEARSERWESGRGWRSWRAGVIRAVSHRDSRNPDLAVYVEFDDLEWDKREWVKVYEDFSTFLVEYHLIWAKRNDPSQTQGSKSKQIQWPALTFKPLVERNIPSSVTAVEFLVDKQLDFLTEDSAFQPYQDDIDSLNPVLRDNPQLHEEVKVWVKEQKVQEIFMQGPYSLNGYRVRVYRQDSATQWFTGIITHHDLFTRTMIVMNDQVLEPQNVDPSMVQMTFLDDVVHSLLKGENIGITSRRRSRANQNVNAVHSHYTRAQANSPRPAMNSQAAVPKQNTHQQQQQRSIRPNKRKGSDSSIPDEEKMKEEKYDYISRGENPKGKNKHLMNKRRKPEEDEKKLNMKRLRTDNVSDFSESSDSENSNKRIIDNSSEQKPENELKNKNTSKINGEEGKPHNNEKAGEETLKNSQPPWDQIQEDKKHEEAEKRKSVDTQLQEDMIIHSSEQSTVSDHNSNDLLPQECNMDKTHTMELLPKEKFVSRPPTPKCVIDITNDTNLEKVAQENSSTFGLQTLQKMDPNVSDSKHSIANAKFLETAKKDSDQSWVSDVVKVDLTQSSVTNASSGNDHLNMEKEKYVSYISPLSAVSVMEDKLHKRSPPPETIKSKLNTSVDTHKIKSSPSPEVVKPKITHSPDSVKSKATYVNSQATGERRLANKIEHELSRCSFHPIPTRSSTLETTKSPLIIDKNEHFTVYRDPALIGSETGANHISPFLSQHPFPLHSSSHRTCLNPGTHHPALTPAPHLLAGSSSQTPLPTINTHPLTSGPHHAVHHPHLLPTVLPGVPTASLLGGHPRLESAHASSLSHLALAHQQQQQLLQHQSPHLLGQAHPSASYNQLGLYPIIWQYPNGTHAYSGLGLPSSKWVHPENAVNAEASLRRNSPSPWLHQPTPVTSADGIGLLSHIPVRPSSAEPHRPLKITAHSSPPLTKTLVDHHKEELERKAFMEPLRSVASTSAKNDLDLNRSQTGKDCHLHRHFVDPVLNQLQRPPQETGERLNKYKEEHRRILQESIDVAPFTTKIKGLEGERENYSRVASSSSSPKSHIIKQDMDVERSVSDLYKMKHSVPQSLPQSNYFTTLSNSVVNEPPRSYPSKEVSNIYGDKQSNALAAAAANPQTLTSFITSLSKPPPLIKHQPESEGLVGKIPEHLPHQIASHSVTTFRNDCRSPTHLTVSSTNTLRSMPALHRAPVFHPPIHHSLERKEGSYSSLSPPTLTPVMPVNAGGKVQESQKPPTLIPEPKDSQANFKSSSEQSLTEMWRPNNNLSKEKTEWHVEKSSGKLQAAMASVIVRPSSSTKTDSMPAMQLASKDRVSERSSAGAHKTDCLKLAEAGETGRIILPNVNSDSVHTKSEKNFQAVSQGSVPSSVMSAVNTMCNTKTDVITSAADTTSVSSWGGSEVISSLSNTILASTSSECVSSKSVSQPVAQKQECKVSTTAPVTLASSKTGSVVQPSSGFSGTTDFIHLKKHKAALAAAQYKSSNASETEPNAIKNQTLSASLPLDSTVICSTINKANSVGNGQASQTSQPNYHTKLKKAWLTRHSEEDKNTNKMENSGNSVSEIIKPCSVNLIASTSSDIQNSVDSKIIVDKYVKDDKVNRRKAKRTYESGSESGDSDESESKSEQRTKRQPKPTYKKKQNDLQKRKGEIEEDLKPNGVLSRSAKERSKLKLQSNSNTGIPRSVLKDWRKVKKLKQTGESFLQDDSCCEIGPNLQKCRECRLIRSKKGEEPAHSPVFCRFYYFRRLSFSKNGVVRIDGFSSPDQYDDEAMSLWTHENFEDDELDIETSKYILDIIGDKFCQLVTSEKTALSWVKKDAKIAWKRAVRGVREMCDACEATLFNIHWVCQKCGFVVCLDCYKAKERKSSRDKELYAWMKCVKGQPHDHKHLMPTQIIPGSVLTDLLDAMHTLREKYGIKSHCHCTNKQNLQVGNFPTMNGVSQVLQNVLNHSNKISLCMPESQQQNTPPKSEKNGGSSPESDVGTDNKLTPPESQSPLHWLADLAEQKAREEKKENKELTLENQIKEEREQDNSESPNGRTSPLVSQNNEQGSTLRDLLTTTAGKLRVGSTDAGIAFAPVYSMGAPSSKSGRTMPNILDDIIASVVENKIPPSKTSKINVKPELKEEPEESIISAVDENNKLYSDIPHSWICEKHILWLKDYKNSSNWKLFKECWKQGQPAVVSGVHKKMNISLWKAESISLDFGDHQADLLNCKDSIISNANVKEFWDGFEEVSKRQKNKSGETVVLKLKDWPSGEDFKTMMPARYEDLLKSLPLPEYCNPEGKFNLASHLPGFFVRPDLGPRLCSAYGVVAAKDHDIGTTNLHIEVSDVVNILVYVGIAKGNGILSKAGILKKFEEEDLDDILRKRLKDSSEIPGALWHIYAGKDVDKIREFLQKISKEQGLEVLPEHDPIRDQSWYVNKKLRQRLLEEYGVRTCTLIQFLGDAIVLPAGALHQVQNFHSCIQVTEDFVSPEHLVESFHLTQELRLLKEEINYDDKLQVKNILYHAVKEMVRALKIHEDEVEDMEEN
UniProt P60953: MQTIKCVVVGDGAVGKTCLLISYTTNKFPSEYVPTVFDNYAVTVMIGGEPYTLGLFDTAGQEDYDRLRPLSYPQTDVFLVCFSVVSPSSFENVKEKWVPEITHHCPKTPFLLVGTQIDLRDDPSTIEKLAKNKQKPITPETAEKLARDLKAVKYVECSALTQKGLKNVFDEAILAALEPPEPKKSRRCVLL
UniProt P23528: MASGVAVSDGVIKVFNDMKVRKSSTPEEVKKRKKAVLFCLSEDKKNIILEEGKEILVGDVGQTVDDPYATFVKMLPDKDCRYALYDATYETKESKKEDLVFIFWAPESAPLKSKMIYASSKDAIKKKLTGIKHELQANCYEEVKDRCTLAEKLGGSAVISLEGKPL
UniProt P35579: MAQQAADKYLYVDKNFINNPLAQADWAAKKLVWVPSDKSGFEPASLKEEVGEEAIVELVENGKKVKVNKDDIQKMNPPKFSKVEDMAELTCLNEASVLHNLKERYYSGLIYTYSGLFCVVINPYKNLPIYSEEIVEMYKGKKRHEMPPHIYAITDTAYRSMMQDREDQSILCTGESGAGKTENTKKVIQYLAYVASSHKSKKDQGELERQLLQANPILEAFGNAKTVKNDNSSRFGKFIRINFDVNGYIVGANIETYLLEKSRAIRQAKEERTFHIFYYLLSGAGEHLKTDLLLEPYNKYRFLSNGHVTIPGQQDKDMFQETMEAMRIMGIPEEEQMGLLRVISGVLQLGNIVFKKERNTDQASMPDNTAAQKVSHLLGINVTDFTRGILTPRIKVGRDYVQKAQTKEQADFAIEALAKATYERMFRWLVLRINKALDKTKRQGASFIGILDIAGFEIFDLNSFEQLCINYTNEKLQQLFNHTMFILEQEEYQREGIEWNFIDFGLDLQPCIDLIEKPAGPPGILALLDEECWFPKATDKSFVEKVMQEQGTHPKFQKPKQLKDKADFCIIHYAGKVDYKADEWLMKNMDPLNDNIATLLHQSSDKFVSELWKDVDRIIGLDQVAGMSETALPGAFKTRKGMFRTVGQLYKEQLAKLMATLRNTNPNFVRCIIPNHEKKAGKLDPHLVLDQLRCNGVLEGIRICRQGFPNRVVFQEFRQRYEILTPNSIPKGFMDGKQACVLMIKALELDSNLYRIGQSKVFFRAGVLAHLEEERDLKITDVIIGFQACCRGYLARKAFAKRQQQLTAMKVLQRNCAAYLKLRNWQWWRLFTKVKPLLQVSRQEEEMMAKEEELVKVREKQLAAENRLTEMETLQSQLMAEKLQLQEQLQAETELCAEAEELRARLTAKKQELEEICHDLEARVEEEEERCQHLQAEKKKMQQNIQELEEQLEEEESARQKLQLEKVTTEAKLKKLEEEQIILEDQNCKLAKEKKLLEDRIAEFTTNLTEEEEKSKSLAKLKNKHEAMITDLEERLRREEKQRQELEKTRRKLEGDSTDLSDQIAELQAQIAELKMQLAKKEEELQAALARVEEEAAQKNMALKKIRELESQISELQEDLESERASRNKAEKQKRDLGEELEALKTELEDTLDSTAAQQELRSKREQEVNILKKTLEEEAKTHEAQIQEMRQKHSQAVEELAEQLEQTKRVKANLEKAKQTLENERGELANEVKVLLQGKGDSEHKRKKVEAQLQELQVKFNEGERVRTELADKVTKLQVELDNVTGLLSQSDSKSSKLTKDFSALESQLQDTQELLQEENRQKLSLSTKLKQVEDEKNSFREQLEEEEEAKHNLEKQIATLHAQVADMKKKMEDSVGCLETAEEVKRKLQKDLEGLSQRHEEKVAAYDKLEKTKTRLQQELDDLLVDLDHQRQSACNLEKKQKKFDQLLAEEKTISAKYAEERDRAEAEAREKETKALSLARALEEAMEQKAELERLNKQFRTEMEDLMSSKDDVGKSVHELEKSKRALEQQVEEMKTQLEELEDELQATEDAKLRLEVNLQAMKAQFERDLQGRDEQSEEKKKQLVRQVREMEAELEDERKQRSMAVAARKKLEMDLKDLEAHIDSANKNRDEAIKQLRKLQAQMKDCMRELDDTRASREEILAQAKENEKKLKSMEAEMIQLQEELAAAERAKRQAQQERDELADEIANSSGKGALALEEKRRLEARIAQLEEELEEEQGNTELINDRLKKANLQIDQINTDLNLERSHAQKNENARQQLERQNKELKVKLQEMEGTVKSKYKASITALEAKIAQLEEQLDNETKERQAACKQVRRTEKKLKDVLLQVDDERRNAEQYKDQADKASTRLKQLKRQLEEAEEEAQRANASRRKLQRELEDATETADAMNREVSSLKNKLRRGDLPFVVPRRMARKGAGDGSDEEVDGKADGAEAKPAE

These are yes or no findings as the source states them, for the method shown. In cells and extracts the contact can be indirect.

For the assay, the target named is histone demethylase JMJD1C (human (endogenous in K562, MEG-01 and cord blood cells)) (UniProt Q15652). Kind of assay: co-IP; Supplementary Figure S2; cells not given; non-denaturing lysis buffer, protein A/G magnetic beads, western blotting. (In western blotting, separated proteins are transferred to a membrane and probed.)

On to CDC42 (from UniProt P60953 1-191), for which the binding result is given as “no binding”. The same measure for CFL1 (from UniProt P23528 1-166): “no binding”. MYH9 (from UniProt P35579 1-1960): the binding result is “no binding”.
